PubChem BioAssay AID1053208 | Peter MacCallum Cancer Centre – 2014
Shown is one part, drawn at random, of about 17,000 deposited reagents. Of all reagents, 788 (4.7%) are marked active. 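Calls rest on z-score classes alone; an extra cut-off of viability at most 70% of control was not applied to them.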 A number with no mark means an inactive call. Reagents against one gene are numbered here.

Screen: 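Find knock-downs that sensitise mouse osteosarcoma cells to doxorubicin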 (primary screen)
System: mouse osteosarcoma cells, early-passage culture from an engineered mouse model of fibroblastic bone tumour
Reagents: siRNA pool against mouse genes, 40 nM
Duration: about 120 h (48 h before drug, then 72 h with drug)
Treatment: doxorubicin 100 nM for 72 h, roughly 30-40% inhibitory dose
Measurement: 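Viability read as ATP luminescence after 72 h of 100 nM doxorubicin or none, duplicate wells averaged, scaled to non-targeting siRNA, then expressed as robust z-scores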
Direction: viability z-score with doxorubicin and doxorubicin viability vs non-targeting: higher = more viable cells under doxorubicin; viability z-score without drug: higher = more viable cells with knock-down alone; z-score of drug to no-drug ratio: higher = less drug sensitisation by knock-down
Call rule: 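a pool counts as active when its viability z-score with doxorubicin is -2 or below and its z-score without drug lies between -2 and 2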

target gene,reagent no.,combined z-score class,viability z-score with doxorubicin,viability z-score without drug,z-score of drug to no-drug ratio,doxorubicin viability vs non-targeting
Brix1,1,low cell count without drug only,-0.9,-3.88,2.36,0.86
Lpin2,1,no change with or without drug,-1.8,-1.52,-0.79,0.78
Rab6b,1,no change with or without drug,1.12,-0.34,1.57,1.04
Gpr142,1,no change with or without drug,-0.11,0.67,-0.45,0.93
Klk1b16,1,no change with or without drug,0.45,0.17,0.45,0.98
Brms1,1,high cell count with doxorubicin only,2.02,0.17,2.14,1.12
Tmem255a,1,no change with or without drug,0.67,0.17,0.67,1
Cspg5,1,no change with or without drug,0.45,1.35,-0.34,0.98
Ikzf4,1,high cell count with and without drug,4.16,2.36,2.47,1.31
Ikzf4,2,no change with or without drug,0,0.51,-0.22,0.94
Sgta,1,no change with or without drug,0.45,-0.17,0.67,0.98
Mvb12a,1,no change with or without drug,0.45,-0.51,1.01,0.98
Cdc45,1,low cell count with and without drug,-3.82,-2.36,-2.7,0.6
Tiparp,1,no change with or without drug,0.67,1.18,0,1
Rps6kc1,1,high cell count with doxorubicin only,3.04,1.18,2.36,1.21
Sec14l4,1,no change with or without drug,-1.69,-1.18,-0.9,0.79
Dynlt1b,1,no change with or without drug,-1.46,-0.34,-1.24,0.81
Grp,1,no change with or without drug,0.56,0.17,0.56,0.99
Sfxn5,1,no change with or without drug,0.56,-0.51,1.12,0.99
Nploc4,1,no change with or without drug,-0.22,-0.51,0.22,0.92
Lrrc75a,1,no change with or without drug,1.12,-0.67,1.8,1.04
Tvp23b,1,no change with or without drug,-0.45,0.84,-0.9,0.9
Nol9,1,no change with or without drug,1.57,-0.17,1.91,1.08
Wbp2,1,no change with or without drug,-1.12,0.17,-1.12,0.84
Gprc5c,1,high cell count with doxorubicin only,2.02,1.52,1.12,1.12
Krtap6-5,1,no change with or without drug,-1.8,-1.18,-1.01,0.78
Proser2,1,no change with or without drug,0.67,1.69,-0.34,1
Sdhaf4,1,high cell count without drug only,1.57,2.87,-0.22,1.08
Eppin,1,no change with or without drug,0.79,1.52,-0.11,1.01
Lgi2,1,no change with or without drug,0.34,0.51,0.11,0.97
Aldh7a1,1,no change with or without drug,-0.22,0.51,-0.45,0.92
Utp3,1,no change with or without drug,0.45,0.17,0.45,0.98
Cyp2g1,1,no change with or without drug,-0.67,0.51,-0.9,0.88
Rbm26,1,no change with or without drug,-1.12,-0.51,-0.79,0.84
Fblim1,1,no change with or without drug,-0.56,0.34,-0.67,0.89
Slc6a2,1,no change with or without drug,0.45,0.17,0.45,0.98
Abcg3,1,no change with or without drug,-0.45,-0.51,0,0.9
Bcat2,1,no change with or without drug,1.12,0.84,0.67,1.04
Ccl4,1,low cell count with and without drug,-2.14,-2.19,-0.79,0.75
Mlec,1,no change with or without drug,0.79,0.84,0.34,1.01
Trpc4ap,1,no change with or without drug,-1.12,-0.84,-0.56,0.84
Dbp,1,no change with or without drug,0.9,0.51,0.67,1.02
Rab7,1,no change with or without drug,-0.22,-0.17,0,0.92
Zfy2,1,no change with or without drug,1.12,0.51,0.9,1.04
Or10ak13,1,no change with or without drug,0.45,-0.34,0.79,0.98
Hspb1,1,no change with or without drug,0.11,-0.17,0.34,0.95
Ubxn4,1,no change with or without drug,0.56,0.84,0.11,0.99
Olfr197,1,no change with or without drug,1.12,-0.51,1.69,1.04
Prph2,1,no change with or without drug,-1.57,-1.69,-0.45,0.8
Nup210,1,no change with or without drug,-1.24,-0.17,-1.12,0.83
Or8g21,1,low cell count with doxorubicin only (active),-2.25,-1.01,-1.69,0.74
Golm1,1,no change with or without drug,0.34,1.35,-0.45,0.97
Ly9,1,no change with or without drug,0.9,0.17,0.9,1.02
Or9i14,1,no change with or without drug,0.45,0,0.56,0.98
Supt4a,1,no change with or without drug,0.34,0.34,0.22,0.97
Cln8,1,no change with or without drug,-1.57,-0.51,-1.24,0.8
Mrgpre,1,no change with or without drug,0,-1.18,1.01,0.94
Nlgn3,1,no change with or without drug,0,0,0.11,0.94
Spmip10,1,high cell count without drug only,1.35,3.54,-0.79,1.06
Npy4r,1,no change with or without drug,0.9,1.01,0.34,1.02
Lmbrd2,1,high cell count with and without drug,2.02,2.19,0.67,1.12
Snx18,1,no change with or without drug,0,-0.17,0.22,0.94
Cenps,1,no change with or without drug,0.11,-0.17,0.34,0.95

Already shown: 7 of the entries above.
target gene,reagent no.,combined z-score class,viability z-score with doxorubicin,viability z-score without drug,z-score of drug to no-drug ratio,doxorubicin viability vs non-targeting
Tmem255a,1,no change with or without drug,0.67,0.17,0.67,1
Cspg5,1,no change with or without drug,0.45,1.35,-0.34,0.98
Ikzf4,1,high cell count with and without drug,4.16,2.36,2.47,1.31
Ikzf4,2,no change with or without drug,0,0.51,-0.22,0.94
Sgta,1,no change with or without drug,0.45,-0.17,0.67,0.98
Mvb12a,1,no change with or without drug,0.45,-0.51,1.01,0.98
Cdc45,1,low cell count with and without drug,-3.82,-2.36,-2.7,0.6
